Some results were stated once for a whole list of compounds, not compound by compound.
Assays:
[1] = test system: Thanatephorus cucumeris (Rhizoctonia solani); test: Fungicidal activity against Thanatephorus cucumeris (Rhizoctonia solani) / liquid culture (foot rot, damping-off); assay type: cell-based; details: 200 ppm; liquid culture (PDB), inhibition of growth determined photometrically 3-4 days after application
[2] = test system: Blumeria graminis f. sp. tritici (Erysiphe graminis f. sp. tritici); test: Fungicidal activity against Blumeria graminis f. sp. tritici / wheat / leaf disc preventative (powdery mildew on wheat); assay type: in vivo; details: 200 ppm; wheat leaf segments cv. Kanzler, inoculated 1 day after application, assessed 6-8 days after application, vs untreated
Alternaria solani = test: Fungicidal activity against Alternaria solani / tomato / leaf disc (early blight); assay type: in vivo; details: 200 ppm; tomato leaf disks cv. Baby, inoculated 2 days after application, assessed 5-7 days after application, vs untreated

Row | Structure (SMILES) | disease control [1] | disease control [2] | disease control (Alternaria solani)
1 | COc1cccc(-c2nc(-c3cccc(C)n3)nc3sccc23)c1 [Compound T15.11] | at least 80% | – | –
2 | c1ccc(Cc2cccc(-c3ncc4ccsc4n3)n2)cc1 [Compound T15.16] | at least 80% | – | –
3 | c1ccc(Cc2cccc(-c3ncc4ccsc4n3)n2)cc1 [Compound T3.1.31, 2-(6-benzyl-pyridin-2-yl)-thieno[2,3-d]pyrimidine] | – | at least 80% | –
4 | Cc1cccc(-c2nc(-c3ccc(Cl)cc3)c3ccsc3n2)n1 [Compound T15.15] | at least 80% | at least 80% | –
5 | Cc1cccc(-c2nc(-c3cccc(C)n3)nc3sccc23)c1 [Compound T15.12] | at least 80% | – | –
6 | Cc1ccc(-c2ncc3cccnc3n2)nc1-c1ccccc1 [Compound T10.1.6, 2-(5-methyl-6-phenyl-pyridin-2-yl)-pyrido[2,3-d]pyrimidine] | at least 80% | – | at least 80%
